From paper PMC9098437 come the findings set out here.

Results are given in words; binding and its absence hold for the method and conditions named. Binding seen in cells or lysates may run through a third protein. Binding calls can cover weak binding; strength is not graded here. Tags and fused reporters may be left off the sequences shown.

One assay deals with T1, Atoh1-cYFP (UniProt P48985).
T1 sequence: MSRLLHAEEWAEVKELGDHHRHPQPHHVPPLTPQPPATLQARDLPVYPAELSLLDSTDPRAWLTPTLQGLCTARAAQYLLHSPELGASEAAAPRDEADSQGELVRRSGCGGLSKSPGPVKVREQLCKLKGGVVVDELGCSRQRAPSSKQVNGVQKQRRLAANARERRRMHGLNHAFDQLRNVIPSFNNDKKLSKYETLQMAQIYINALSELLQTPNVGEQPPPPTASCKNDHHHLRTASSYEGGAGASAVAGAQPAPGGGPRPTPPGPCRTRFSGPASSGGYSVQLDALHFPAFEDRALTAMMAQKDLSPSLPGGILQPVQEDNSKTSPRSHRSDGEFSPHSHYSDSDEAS
Description: split reporter; bimolecular fluorescence complementation of YFP halves in transfected DAOY cells; fluorescence of the cells measured by flow cytometry. A general note: In flow cytometry, cells or beads pass a laser one at a time.

The next assay concerns the target T2, ATOH1-GFP fusion protein (UniProt P48985).
T2 sequence: T1 sequence
Description: co-IP; lysates of transfected HEK-293 T cells (results text: DAOY); ATOH1-GFP captured on GFP-Trap magnetic agarose beads overnight at 4 °C in CoIP lysis buffer (25 mM Tris-HCl pH 7.5, 150 mM NaCl, 1 mM EDTA, 1% NP-40); blots for GFI1, FLAG, GFP; without ethidium bromide.

Consider E47-nYFP (from UniProt P15806-2), for which the binding result in the assay with Atoh1-cYFP is reported as “binds”.

Flag-tagged E47 (from UniProt P15806-2): in the assay with ATOH1-GFP fusion protein, the binding result is “binds”.
